From patent US10624965B2, “Immunotherapy treatments and compositions” (SUSAVION BIOSCIENCES, INC., priority 2014, dated 2020)
Values joined by “and” are separate entries in the source; they are usually repeats but may differ in a detail not shown here. Equal entries are not always repeated. Where two headings read alike, the source gives them in different places. At least one peptide structure holds a part that was inferred or is arguable (an end, a ring closure or a residue). Positions of bridges follow the written chain, without caps; N, C: chain ends. Chains are numbered I, II in the order given. No end group written: not given here.

Columns and labels:
[1] = tested on: variety of cancers; assay: IV injections of svL4 into dogs with a variety of cancers; assay type: in vivo; conditions: weekly i.v. injections of 1 mg svL4 alone; preliminary study
[2] = tested on: ovarian cancer cell line; assay type: in vivo
[3] = tested on: glioma cells (murine GL261 cell line); assay: Glioma implanted in brain of mice: tumor size and survival; assay type: in vivo, mice (strain C57BL/6); conditions: svL4 1 nmol/g on alternate days beginning on day 7; radiation 2 treatments of 4 Gy (day 7 and 9)
[4] = tested on: serum cytokines and chemokines; assay type: in vivo
Experimental: To determine whether the responses in serum proteins would be different in tumor-bearing mice from those in healthy mice, sera were collected from female mice in which breast cancer 4T1 cells had been implanted. After the tumors had grown over a period of 10 to 12 days to a size of ˜500 mm^3, tetravalent svL4 was injected subcutaneously at doses of 0.1 and 1.0 nmol/g. Blood was withdrawn and sera prepared 4 hours after injection. The sera of untreated animals had low levels of cytokines and chemokines at 4 h. With a few proteins, such as IL-1β, IL-2, IL-6 and TNFα, the values were very low in untreated animals and upon treatment with svL4 were increased but still nearly undetectable on the array blots. […] Several cytokines that increased but were still low in amount included GM-CSF, CCL4, IGFBP-1, IL-21, lymphotoxin-α, and IL-17. Major proteins included CCL1, CCL8, CCL28, Endostatin, Fas, HVEM, IL-11, IL-12p70, IL-16, IL-27, IL-28, MIP-2, MMP-9, NOV, Soggy-1, SPARC, TIMP-2, TLR2 and VEGF-B. In some cases, the higher dose caused a higher amount of the protein, whereas with several proteins the amount was lower with the higher dose. […] A number of soluble proteins were identified as cell-surface receptors, such as Fas, HVEM and TLR2, which indicated significant shedding by activated cells. Soluble HVEM was a major protein in tumor-bearing mice, as in healthy mice, but the level in control mice was greater in mice with breast cancer, which led to only a 2-fold increase after treatment with svL4.

[5] = tested on: serum cytokines and chemokines; assay: Serum cytokines/chemokines in healthy mice (separate experiment); assay type: in vivo; conditions: svL4 1 nmol/g
[6] = Balb/c mice bearing 4T1 breast tumors, serum 4 h after s.c. svL4, maximum at 0.1 nmol/g svL4
[7] = Balb/c mice bearing 4T1 breast tumors, serum 4 h after s.c. svL4, maximum at 1 nmol/g svL4
[8] = Balb/c mice bearing 4T1 breast tumors, serum 4 h after s.c. svL4, maximum at 0.1 and 1 nmol/g svL4

In the case of “I: VQATQSNQHTPRGGGSKK-NH2 / II: VQATQSNQHTPRGGGSK / III: VQATQSNQHTPRGGGS / IV: VQATQSNQHTPRGGGS (amide I:17-IV:C, I:18-II:C, II:17-III:C) [svL4, [(VQATQSNQHTPRGGGS)2K]2K—NH2]”, the “survival of dogs vs. standard chemotherapeutic drugs” value [1] is reported as “significantly extending life”, the “extension of survival, comparison of three doses and two frequencies” value ([2]; 0.1 nmol/g, administered every other day) is reported as “maximal extension of survival” and the “Median Survival” value ([2]; svL4 0.1 nmol/g MW) is reported as 126.0 days. For the same substance, the “Median Survival” value ([2]; svL4 0.1 nmol/g Q2D) was 146.0 days, the “animals alive at day 110” value ([2]; svL4 0.1 nmol/g, group of 8) was 8 and the “Median Survival” value ([2]; svL4 1.0 nmol/g MW) was 137.5 days. For the same substance, the “Median Survival” value ([2]; svL4 1.0 nmol/g Q2D) was 130.0 days, the “Median Survival” value ([2]; svL4 10 nmol/g MW) was 132.5 days and the “Median Survival” value ([2]; svL4 10 nmol/g Q2D) was 137.5 days. For the same substance, the “Median survival after implantation” value [3] was 22 days, the “IL-2, fold increase in treated vs. untreated mice” value [4, 6] was 56 fold and the “IL-15, fold increase in treated vs. untreated mice” value [4, 6] was “High*”. For the same substance, the “IL-17, fold increase in treated vs. untreated mice” value [4, 6] was “High*”, the “IL-23, fold increase in treated vs. untreated mice” value [4, 6] was “High*” and the “IL-28, fold increase in treated vs. untreated mice” value [4, 6] was 4.3 fold. The “IL-31, fold increase in treated vs. untreated mice” value [4, 6] was 3.5 fold, the “Lymphotoxin-α, fold increase in treated vs. untreated mice” value [4, 6] was 12.5 fold and the “MIP-2/CXCL2, fold increase in treated vs. untreated mice” value [4, 6] was about 6 fold. For the same substance, the “Pentraxin3, fold increase in treated vs. untreated mice” value [4, 6] was about 4 fold, the “SPARC, fold increase in treated vs. untreated mice” value [4, 6] was about 5 fold and the “TIMP-2, fold increase in treated vs. untreated mice” value [4, 6] was 2.9 fold. For the same substance, the “TLR2, fold increase in treated vs. untreated mice” value [4, 6] was 4.2 fold, the “TNFα, fold increase in treated vs. untreated mice” value [4, 6] was 4.6 fold and the “CCL1, fold increase in treated vs. untreated mice” value [4, 7] was 2.5 fold. The “CCL8/MCP-2, fold increase in treated vs. untreated mice” value [4, 7] was 5 fold, the “IFNγ, fold increase in treated vs. untreated mice” value [4, 7] was “High*” and the “IL-16, fold increase in treated vs. untreated mice” value [4, 8] was 4 fold. The “sHVEM, fold increase in treated vs. untreated mice” value [4, 8] was 2 fold and ~2 fold, the “increase in IL-10” value ([4]; sera from Balb/c mice bearing breast cancer tumors) was “did not induce an increase” and the “IL-1α, IL-6, IFNγ, TNFα and TGFβ in serum” value ([4]; tumor-bearing mice) was “increased significantly”. For the same substance, the “IL-16, MMP-9, P-selectin, Soggy-1, TLR2, TRAIL, and TIMP-2 in serum” value ([4]; tumor-bearing mice) was “increased dramatically”, the “CCL1, ratio of treated vs. untreated samples, Healthy Balb/c” value [5] was “No change” and the “CCL8/MCP-2, ratio of treated vs. untreated samples, Healthy Balb/c” value [5] was “High*”. For the same substance, the “IFNγ, ratio of treated vs. untreated samples, Healthy Balb/c” value [5] was “No change”, the “IL12p70, ratio of treated vs. untreated samples, Healthy Balb/c” value [5] was “No change” and the “IL-2, ratio of treated vs. untreated samples, Healthy Balb/c” value [5] was “High*”. For the same substance, the “IL-15, ratio of treated vs. untreated samples, Healthy Balb/c” value [5] was “High*”, the “IL-16, ratio of treated vs. untreated samples, Healthy Balb/c” value [5] was 0.57 and the “IL-17, ratio of treated vs. untreated samples, Healthy Balb/c” value [5] was “No change”. For the same substance, the “IL-21, ratio of treated vs. untreated samples, Healthy Balb/c” value [5] was “No change”, the “IL-23, ratio of treated vs. untreated samples, Healthy Balb/c” value [5] was 0.55 and the “IL-27, ratio of treated vs. untreated samples, Healthy Balb/c” value [5] was “High*”. For the same substance, the “IL-28, ratio of treated vs. untreated samples, Healthy Balb/c” value [5] was “High*”, the “IL-31, ratio of treated vs. untreated samples, Healthy Balb/c” value [5] was “High*” and the “Lymphotoxin-α, ratio of treated vs. untreated samples, Healthy Balb/c” value [5] was 0.74. The “MIP-2/CXCL2, ratio of treated vs. untreated samples, Healthy Balb/c” value [5] was “No change”, the “Pentraxin3, ratio of treated vs. untreated samples, Healthy Balb/c” value [5] was 0.21 and the “SPARC, ratio of treated vs. untreated samples, Healthy Balb/c” value [5] was “No change”. For the same substance, the “TIMP-2, ratio of treated vs. untreated samples, Healthy Balb/c” value [5] was 0.45, the “TLR2, ratio of treated vs. untreated samples, Healthy Balb/c” value [5] was 0.37 and the “TNFα, ratio of treated vs. untreated samples, Healthy Balb/c” value [5] was 0.2. The “sHVEM, ratio of treated vs. untreated samples, Healthy Balb/c” value [5] was 5.
